From paper doi:10.1101/2022.09.01.506203 come the findings set out here.

Chains of the proteins cited; added tags and fusions are not shown.
UniProt Q91ZW3: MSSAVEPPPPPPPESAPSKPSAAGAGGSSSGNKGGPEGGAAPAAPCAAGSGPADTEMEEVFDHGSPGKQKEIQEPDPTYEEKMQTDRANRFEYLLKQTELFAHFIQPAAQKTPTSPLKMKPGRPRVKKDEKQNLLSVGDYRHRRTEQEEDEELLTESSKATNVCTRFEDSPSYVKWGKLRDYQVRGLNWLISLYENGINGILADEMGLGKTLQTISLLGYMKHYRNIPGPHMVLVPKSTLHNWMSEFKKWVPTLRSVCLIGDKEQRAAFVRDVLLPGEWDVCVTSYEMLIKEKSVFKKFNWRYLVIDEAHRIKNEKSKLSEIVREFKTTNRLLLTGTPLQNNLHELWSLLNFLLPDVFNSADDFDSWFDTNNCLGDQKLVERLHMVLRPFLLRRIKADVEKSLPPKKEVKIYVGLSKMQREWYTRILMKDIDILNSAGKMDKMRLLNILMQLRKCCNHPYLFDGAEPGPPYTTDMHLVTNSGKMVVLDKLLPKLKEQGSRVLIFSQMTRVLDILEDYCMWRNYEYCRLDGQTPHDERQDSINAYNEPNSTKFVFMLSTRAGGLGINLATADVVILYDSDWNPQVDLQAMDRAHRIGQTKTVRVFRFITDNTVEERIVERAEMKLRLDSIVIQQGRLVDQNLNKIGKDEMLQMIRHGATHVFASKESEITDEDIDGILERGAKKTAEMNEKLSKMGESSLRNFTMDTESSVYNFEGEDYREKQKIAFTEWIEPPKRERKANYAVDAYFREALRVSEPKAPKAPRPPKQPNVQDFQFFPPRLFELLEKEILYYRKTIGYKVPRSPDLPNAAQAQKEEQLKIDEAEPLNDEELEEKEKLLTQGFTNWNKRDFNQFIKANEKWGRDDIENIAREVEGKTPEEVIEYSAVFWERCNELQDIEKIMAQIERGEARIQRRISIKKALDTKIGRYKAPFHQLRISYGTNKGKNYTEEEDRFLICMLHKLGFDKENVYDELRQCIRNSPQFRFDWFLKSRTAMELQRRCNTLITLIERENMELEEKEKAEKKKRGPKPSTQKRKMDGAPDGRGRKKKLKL
UniProt A2AUY4: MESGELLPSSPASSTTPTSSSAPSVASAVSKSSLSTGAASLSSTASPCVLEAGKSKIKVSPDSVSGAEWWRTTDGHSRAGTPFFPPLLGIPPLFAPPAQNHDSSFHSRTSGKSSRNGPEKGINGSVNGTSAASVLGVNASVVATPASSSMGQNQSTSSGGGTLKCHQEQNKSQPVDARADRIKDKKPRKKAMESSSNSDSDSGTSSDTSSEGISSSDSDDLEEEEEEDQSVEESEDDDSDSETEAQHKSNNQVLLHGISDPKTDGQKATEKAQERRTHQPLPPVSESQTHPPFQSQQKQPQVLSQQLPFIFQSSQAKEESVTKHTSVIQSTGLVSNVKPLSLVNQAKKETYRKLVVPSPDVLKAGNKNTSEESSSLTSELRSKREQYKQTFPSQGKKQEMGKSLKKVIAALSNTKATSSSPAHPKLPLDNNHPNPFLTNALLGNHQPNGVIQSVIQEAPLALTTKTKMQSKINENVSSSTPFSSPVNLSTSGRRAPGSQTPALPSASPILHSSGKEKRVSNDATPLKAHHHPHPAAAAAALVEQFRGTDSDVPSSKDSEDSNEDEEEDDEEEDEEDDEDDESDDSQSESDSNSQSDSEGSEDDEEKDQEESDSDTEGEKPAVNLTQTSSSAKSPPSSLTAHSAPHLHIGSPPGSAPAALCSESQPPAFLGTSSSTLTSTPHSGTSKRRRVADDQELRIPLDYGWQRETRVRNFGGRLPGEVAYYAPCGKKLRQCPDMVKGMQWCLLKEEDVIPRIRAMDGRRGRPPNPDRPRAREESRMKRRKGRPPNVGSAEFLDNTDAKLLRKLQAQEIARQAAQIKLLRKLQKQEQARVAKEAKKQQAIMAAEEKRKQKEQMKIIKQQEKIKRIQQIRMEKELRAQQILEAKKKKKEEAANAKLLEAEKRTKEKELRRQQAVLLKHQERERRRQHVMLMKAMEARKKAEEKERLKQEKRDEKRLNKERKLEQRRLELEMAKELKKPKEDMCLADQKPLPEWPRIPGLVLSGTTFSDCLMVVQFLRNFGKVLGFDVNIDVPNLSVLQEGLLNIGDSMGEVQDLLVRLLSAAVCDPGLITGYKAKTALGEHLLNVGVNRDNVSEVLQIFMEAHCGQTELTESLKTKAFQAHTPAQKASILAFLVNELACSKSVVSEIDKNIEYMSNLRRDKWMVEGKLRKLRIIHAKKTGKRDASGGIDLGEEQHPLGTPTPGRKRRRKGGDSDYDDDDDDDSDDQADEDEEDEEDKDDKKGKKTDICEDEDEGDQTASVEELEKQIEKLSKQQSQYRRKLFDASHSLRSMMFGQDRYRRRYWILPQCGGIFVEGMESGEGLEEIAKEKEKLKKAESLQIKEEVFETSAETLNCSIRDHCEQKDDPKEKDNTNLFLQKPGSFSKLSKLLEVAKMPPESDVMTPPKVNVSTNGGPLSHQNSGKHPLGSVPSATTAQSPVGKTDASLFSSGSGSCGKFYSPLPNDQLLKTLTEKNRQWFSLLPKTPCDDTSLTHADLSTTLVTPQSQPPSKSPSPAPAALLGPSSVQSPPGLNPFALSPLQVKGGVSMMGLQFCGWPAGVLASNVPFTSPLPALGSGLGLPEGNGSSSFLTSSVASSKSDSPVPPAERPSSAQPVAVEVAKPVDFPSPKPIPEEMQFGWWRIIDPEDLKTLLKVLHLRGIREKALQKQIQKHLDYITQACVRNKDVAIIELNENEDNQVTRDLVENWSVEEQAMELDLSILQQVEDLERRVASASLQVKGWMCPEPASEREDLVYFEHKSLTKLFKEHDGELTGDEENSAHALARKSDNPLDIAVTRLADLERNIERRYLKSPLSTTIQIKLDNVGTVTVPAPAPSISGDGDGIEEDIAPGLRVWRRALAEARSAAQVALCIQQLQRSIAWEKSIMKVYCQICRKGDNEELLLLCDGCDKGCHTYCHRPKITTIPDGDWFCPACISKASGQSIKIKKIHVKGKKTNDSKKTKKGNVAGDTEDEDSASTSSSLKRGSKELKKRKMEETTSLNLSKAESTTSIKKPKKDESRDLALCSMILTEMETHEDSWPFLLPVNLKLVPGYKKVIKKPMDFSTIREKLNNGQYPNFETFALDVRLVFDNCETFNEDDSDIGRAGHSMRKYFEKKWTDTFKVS
UniProt E9Q2Z1: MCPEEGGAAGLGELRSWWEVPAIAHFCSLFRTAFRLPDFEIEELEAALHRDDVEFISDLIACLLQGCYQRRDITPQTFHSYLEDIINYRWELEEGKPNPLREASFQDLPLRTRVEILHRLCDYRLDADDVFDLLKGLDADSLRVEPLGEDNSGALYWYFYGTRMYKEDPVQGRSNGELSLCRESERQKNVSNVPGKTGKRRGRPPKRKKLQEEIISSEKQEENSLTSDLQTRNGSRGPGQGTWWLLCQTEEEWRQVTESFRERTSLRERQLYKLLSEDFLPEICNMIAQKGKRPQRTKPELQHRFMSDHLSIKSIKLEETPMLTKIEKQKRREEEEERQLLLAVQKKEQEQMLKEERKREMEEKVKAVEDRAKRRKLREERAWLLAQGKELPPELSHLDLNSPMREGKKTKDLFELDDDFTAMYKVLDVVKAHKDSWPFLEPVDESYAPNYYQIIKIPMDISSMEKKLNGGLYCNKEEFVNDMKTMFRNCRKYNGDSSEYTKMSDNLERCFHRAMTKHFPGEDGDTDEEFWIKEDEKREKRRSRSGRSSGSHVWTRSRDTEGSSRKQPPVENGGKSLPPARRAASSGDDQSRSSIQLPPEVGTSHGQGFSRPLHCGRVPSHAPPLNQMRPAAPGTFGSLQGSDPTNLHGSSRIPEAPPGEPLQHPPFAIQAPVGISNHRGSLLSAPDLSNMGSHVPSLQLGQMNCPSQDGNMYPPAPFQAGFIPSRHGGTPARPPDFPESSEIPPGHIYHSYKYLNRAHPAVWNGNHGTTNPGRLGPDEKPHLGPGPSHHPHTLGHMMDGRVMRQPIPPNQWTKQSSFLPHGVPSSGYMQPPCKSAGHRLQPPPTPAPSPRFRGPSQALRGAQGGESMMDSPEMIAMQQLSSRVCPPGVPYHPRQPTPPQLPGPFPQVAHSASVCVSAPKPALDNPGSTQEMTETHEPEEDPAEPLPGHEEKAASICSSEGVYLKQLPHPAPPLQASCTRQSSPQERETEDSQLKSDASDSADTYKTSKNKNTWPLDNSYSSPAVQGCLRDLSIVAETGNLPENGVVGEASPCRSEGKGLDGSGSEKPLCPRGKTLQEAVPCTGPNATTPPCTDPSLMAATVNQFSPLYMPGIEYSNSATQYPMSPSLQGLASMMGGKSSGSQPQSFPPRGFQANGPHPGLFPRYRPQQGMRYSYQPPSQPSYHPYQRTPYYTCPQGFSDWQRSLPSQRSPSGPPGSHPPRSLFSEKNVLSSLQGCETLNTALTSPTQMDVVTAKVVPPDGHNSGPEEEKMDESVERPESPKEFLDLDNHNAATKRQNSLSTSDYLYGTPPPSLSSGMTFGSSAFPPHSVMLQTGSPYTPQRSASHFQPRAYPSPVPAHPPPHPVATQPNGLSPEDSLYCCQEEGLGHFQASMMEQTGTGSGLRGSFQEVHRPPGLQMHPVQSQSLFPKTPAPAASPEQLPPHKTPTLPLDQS
UniProt Q61103: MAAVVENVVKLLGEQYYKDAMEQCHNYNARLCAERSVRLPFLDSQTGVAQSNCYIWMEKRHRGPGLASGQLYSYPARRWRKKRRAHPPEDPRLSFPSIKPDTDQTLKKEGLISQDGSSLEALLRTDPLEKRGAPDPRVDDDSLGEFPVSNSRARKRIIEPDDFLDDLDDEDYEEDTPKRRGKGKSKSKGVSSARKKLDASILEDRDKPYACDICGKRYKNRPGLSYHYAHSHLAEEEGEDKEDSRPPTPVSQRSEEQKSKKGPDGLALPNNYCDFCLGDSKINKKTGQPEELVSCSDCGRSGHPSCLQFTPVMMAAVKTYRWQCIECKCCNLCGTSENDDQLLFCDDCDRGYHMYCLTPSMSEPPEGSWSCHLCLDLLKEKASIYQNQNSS
UniProt O54941: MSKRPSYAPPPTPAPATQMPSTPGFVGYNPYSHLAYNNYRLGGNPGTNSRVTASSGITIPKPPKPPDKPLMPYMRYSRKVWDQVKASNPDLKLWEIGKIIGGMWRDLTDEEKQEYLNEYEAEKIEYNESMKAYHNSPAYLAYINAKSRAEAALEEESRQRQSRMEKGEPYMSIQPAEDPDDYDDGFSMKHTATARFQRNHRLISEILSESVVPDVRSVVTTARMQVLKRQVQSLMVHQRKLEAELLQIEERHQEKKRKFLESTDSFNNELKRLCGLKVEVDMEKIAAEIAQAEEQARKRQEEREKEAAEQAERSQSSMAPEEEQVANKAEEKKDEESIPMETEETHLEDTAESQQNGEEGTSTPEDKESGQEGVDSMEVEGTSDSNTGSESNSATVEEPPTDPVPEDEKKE

Results are given in words; binding and its absence hold for the method and conditions named. In cells and extracts the contact can be indirect. A yes stands for co-enrichment or nearness to the bait. Other partners may have been found.

For the assay, the target named is flag-tagged Smarca5/Snf2h (endogenous Smarca5 with GFP-3XFLAG tag) (mouse) (UniProt Q91ZW3). As to the kind of experiment: affinity purification with mass spectrometry.

Turning to “Arid1a (BAF250a) (from UniProt A2BH40 1-2283)”, the binding entry is given as “binds”.

In the case of Baz2a (from UniProt Q91YE5 1-1889), the binding entry is on record as “binds”.

With Baz2b (from UniProt A2AUY4 1-2123), the binding entry was “binds”.

In the case of Cecr2 (from UniProt E9Q2Z1 1-1453), the binding result is “binds”.

For the molecule Dpf2 (from UniProt Q61103 1-391), the binding entry is reported as “binds”.

As for Smarce1 (from UniProt O54941 1-411), the binding entry is given as “binds”.

B1: Nanog (protein, UniProt Q80Z64 1-305)
chain: MSVGLPGPHSLPSSEEASNSGNASSMPAVFHPENYSCLQGSATEMLCTEAASPRPSSEDLPLQGSPDSSTSPKQKLSSPEADKGPEEEENKVLARKQKMRTVFSQAQLCALKDRFQKQKYLSLQQMQELSSILNLSYKQVKTWFQNQRMKCKRWQKNQWLKTSNGLIQKGSAPVEYPSIHCSYPQGYLVNASGSLSMWGSQTWTNPTWSSQTWTNPTWNNQTWTNPTWSSQAWTAQSWNGQPWNAAPLHNFGEDFLQPYVQLQQNFSASDLEVNLEATRESHAHFSTPQALELFLNYSVTPPGEI
For B1, the binding result is reported as “binds”.

B2: Znf280d (protein, UniProt Q68FE8 1-974)
chain: MVTTYIKSDLQLDGRQFFQPKDNLKMAELFMECEEEELEPWQKKVKEVEEDDDDEPIFVAEIASSKPAISNILNRVNPSSHSRGIKNGILNRGFTASFKPTSQRCLNSASNPVAALPVNFHPESRSSDSSVIVQPFSKPGYVTNSPRVLSNNSSELLFDLTQDTGLSHYQGGPTLSIAGLNETSFLSKRPSGSDISSVNPKKPKPSENTSGIDASSVISSEKSPSVISLQVVPSQGANCSSSQSKNGTTFPRACPKCDIHFNLLDPLKNHMTYCCPDMINNFLGLTKADNLNSANEAKTLESEKGKLIMLVNDFYYGKHEGDVLEEQKTHTTFKCFSCLKVLKNNIRFMNHMKHHLELEKQSSESWEKHTTCQHCYRQFPTPFQLQCHIESTHTPHEFSTICKICELSFETEQILLQHMKDNHKPGEMPYICQVCNYRSSLFSEVESHFRTSHENTKNLLCPFCLKVIKIATPYMHHYMKHQKKGIHRCTKCRLQFLTCKEKMDHKTQHHRTFVKPKQLEGLPPGTKVTIRASVGPLQSGSSVTPSISPSTSTLQLSPPEPDNVTAKNHVKLTTSTPNTTISDPSKANETKSNGSKSKNKSKVSNMQKKQSTLSSSNKKSKVNTALRNLRLRRGVHECIECSSEVKDFANHFPTYVHCSFCRYNTSCSKAYVNHMMSFHSNRPSKRYCIFKKHSENLRGISLVCLNCDFLTDVSGLDNMATHLSQHETHSCRVLVEQVSVCIPTSERLSEIKTEAPTKGQEPVSKETARHSRAEGEPGASHSGSKQDKVPSSEEGTGCDASVCEAAAATHCEKDVTVSDTENVSSSKNILSHDPDVGTDTMEKEEKTHHACQEMELKVDQSSESTNPTEAELSSETRQGLQLTSGDVGIDQFLRQGDEPKSVNSDASDPGSVRLEPLTPSEVLEYEATEILHDGDDPSANTSDTVSDQTGGSPGGSNPCRAETAVDLADGEERS
For B2, the binding result is “binds”.

B3: Baz1b (protein, UniProt Q9Z277 1-1479)
chain: MAPLLGRKPFPLVKPLPGEEPLFTIPHTQEAFRTREEYEARLERYSERIWTCKSTGSSQLTHKEAWEEEQEVAELLKEEFPNWYEKLVLEMVHHNTASLEKLVDSAWLEIMTKYAVGEECDFEVGKEKMLKVKIVKIHPLEKVDEEAVEKKSDGACDSPSSDKENSSQMAQDLQKKETVVKEDEGRRESINDRARRSPRKLPTSLKKGERKWAPPKFLPHKYDVKLQNEDKIISNVPADSLIRTERPPNKEILRYFIRHNALRAGTGENAPWVVEDELVKKYSLPSKFSDFLLDPYKYMTLNPSTKRRNTGSPDRKPSKKPKRDSSSLSSPLNPKLWCHVHLEKSLNGPPLKVKNSKNSKSPEEHLEGVMKIMSPNNNKLHSFHIPKKGPAAKKPGKHSDKPLKAKGRGKGILNGQKSTGNSKSPSKCVKTPKTKMKQMTLLDMAKGTQKMTRTPRSSGGVPRSSGKPHKHLPPAALHLIAYYKENKDKEDKKSALSCVISKTARLLSNEDRARLPEELRALVQKRYELLEHKKRWASMSEEQRKEYLKKKRQELKERLREKAKERREREMLERLEKQKRFEDQELGGRNLPAFRLVDTPEGLPNTLFGDVALVVEFLSCYSGLLLPDAQYPITAVSLMEALSADKGGFLYLNRVLVILLQTLLQDEIAEDYGELGMKLSEIPLTLHSVSELVRLCLRRCDVQEDSEGSETDDNKDSTPFEDNEVQDEFLEKLETSEFFELTSEEKLRILTALCHRILMTYSVQDHMETRQQVSAELWKERLAVLKEENDKKRAEKQKRKEMEARNKENGKEENVLGKVDRKKEIVKIEQQVEVEADDMISAVKSRRLLSMQAKRKREIQERETKVRLEREAEEERMRKHKAAAEKAFQEGIAKAKLVLRRTPIGTDRNHNRYWLFSNEVPGLFIEKGWVHNSIDYRFKHHRKDHSNLPDDDYCPRSKKANLGKNASVNAHHGPALEAVETTVPKQGQNLWFLCDSQKELDELLSCLHPQGIRESQLKERLEKRYQEITHSIYLARKPNLGLKSCDGNQELLNFLRSDLIEVATRLQKGGLGYMEGTSEFEARVISLEKLKDFGECVIALQASVIKKFLQGFMAPKQKKRKLQSEDSTKSEEVDEEKKMVEEAKVASALEKWKTAIREAQTFSRMHVLLGMLDACIKWDMSAENARCKVCRKKGEDDKLILCDECNKAFHLFCLRPALYEVPDGEWQCPACQPPTARRNSRGRNYTEESTSEGSEGDESGEEEEEEEEEEEEEEDYEVAGLRLRPRKTIRGKQSVIPAARPGRPPGKKSHPARRSRPKDDPEVDDLVLQTKRISRRQSLELQKCEDILHKLVKYRFSWPFREPVTRDEAEDYYDVIEHPMDFQTIQNKCSCGNYRSVQEFLTDMKQVFANAELYNCRGSHVLSCMEKTEQCLLALLQKHLPGHPYVRRKRRKFPDRLADDEGDSDSESVGQSRGRRQKK
As for B3, the binding result is given as “binds”.

B4: Bud31 (protein, UniProt Q6PGH1 1-144)
chain: MPKVKRSRKAPPDGWELIEPTLDELDQKMREAETEPHEGKRKVESLWPIFRIHHQKTRYIFDLFYKRKAISRELYEYCIKEGYADKNLIAKWKKQGYENLCCLRCIQTRDTNFGTNCICRVPKSKLEVGRIIECTHCGCRGCSG
For the molecule B4, the binding entry is recorded as “binds”.
